PubChem BioAssay AID743454 | Peter MacCallum Cancer Centre – 2014
Screen: 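Genes whose loss kills vorinostat-resistant colon cancer cells under vorinostat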 (primary screen). Cells: human HCT116-VR colon cancer cells, selected for vorinostat resistance. Reagent: siRNA pool against human genes, 40 nM siRNA pool. Duration: vorinostat for 24 h, read-out about 72 h after transfection. Treatment: vorinostat at 2.5 µM final. Measurement: 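Cell viability by CellTiter-Fluor and caspase 3/7 activity by luminescence, each scaled to mock wells per plate, duplicates averaged, then robust z-scored over all plates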. Reading the numbers: viability robust z-score: higher = more viable cells than screen typical; caspase robust z-score: higher = more caspase 3/7 activity than screen typical. Hit rule: 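a knock-down is a hit when classed RV1 or RV2 for lowered viability, or CA1 or CA2 for caspase activation; those lethal without drug were dropped; hits were retested singly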.
Shown is a random part of about 18,000 reagents tested. 450 of them (2.5%) count as active. 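Single biological run; no consistent viability z cut-off exists, so the class columns, not z-scores, define the calls.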 Entries without a mark were called inactive. The numbers tell different reagents against one gene apart.

gene	reagent	viability hit class	caspase hit class	viability robust z-score	caspase robust z-score
PIAS1	1	no change	no change	1.35	-0.15
GLRX2	1	no change	no change	0.2	-0.44
DYNC2H1	1	no change	no change	-0.77	-0.91
PLEKHG7	1	no change	no change	0.02	0.34
PLEKHG7	2	no change	no change	0.56	-0.94
SBSN	1	no change	no change	-0.84	0.72
UPF3A	1	no change	no change	0.32	-0.7
OR52A1	1	no change	no change	1.34	-0.44
NDUFB2	1	no change	no change	-0.55	-0.06
COL8A2	1	no change	no change	0.14	0.88
PROK1	1	no change	no change	-1.92	3.25
UAP1	1	no change	no change	1.56	-0.98
ANKEF1	1	no change	no change	0.6	1.09
AR	1	no change	no change	0.82	-0.12
MAP3K3	1	no change	no change	0.74	0.47
TMEM51	1	no change	no change	-2.72	5.1
JAML	1	no change	no change	0.3	-0.38
NOP10	1	no change	no change	0.56	0.12
SCAMP3	1	no change	no change	0.44	2.91
MARK2	1	no change	no change	-0.26	0.58
PLSCR5	1	no change	no change	0.88	-0.31
TRPM4	1	no change (active)	CA1 (caspase activation)	0.89	6.71
GLIS3	1	no change	no change	-2.19	2.61
DEFA1	1	no change	no change	0.66	1
MRPS7	1	no change	no change	1.07	-0.6
OR8B4	1	no change	no change	1.57	-0.14
TNF	1	no change	no change	1.59	-0.76
PSD3	1	no change	no change	-0.06	0.46
KLHL12	1	no change	no change	0.76	-0.66
KIF1B	1	no change	no change	-0.25	-0.95
PLA2G3	1	no change	no change	-0.96	-0.24
DNAJB14	1	no change	no change	1.88	0.42
NLGN4Y	1	no change	no change	-0.15	-0.58
SLC25A26	1	no change	no change	-1.62	2.21
IFNA5	1	no change	no change	-0.7	-0.38
IDH2	1	no change	no change	1.2	-0.18
MTMR3	1	no change	no change	-0.91	-0.64
SLC25A41	1	no change	no change	-0.18	-0.7
WTIP	1	no change	no change	0.71	0.06
LCORL	1	no change	no change	-1.61	1.58
C3AR1	1	no change	no change	0.18	-0.6
M1AP	1	no change	no change	-0.18	0.65
SPN	1	no change	no change	-1.06	3.1
CHST6	1	no change	no change	1.06	-0.64
APTX	1	no change	no change	0.34	0.72
KIAA1328	1	no change	no change	1.08	0.44
ZNRF1	1	no change	no change	-0.56	-1.02
ERRFI1	1	no change	no change	-0.71	-0.37
CERK	1	no change	no change	1.14	-0.22
CDKL4	1	no change	no change	-0.92	1.9
JMY	1	no change	no change	-0.78	0.9
SUCLA2	1	no change	no change	0.26	-0.23
EXOC3L1	1	no change	no change	-1.68	-0.51
HERPUD2	1	no change	no change	1.17	-0.1
FBXO15	1	no change	no change	-0.38	2.67
XIRP1	1	no change	no change	-0.66	-0.6
RASGRP1	1	no change	no change	0.31	-0.49

Called active (from the list above):
gene	reagent	viability hit class	caspase hit class	viability robust z-score	caspase robust z-score
TRPM4	1	no change (active)	CA1 (caspase activation)	0.89	6.71
